Test results from paper PMC4745783, “The HGF inhibitory peptide HGP-1 displays promising in vitro and in vivo efficacy for targeted cancer therapy” (Oncotarget, 2015).
No constants are given. Whether binding was seen depends on the method and setting. Binding calls can cover weak binding; strength is not graded here.

Molecular target: T1, HGF binding peptide-1 displayed on the surface of bacteria
T1 sequence: HRGLKWEIVPWSGCG
Assay: flow cytometry on cells; competition: 10^7 bacteria incubated with 7 nM HGF and the same molarity of EGF; binding of EGF to the displayed peptide read from the loss of HGF signal; only the binder purified

Q: For Recombinant human EGF (ligand), which binding is on record?
A: Its binding is “binds”.
